Results: US20150225457A1
Results are given in words; binding and its absence hold for the method and conditions named. Some binding calls cover weakened binding; strength is not graded here. Where a sequence is shown, tags or fusion partners need not be part of it.

Amino acid sequences for entries named in this document (tags omitted). Residues count along the entry.
UniProt Q8VIM0, residues 20-281: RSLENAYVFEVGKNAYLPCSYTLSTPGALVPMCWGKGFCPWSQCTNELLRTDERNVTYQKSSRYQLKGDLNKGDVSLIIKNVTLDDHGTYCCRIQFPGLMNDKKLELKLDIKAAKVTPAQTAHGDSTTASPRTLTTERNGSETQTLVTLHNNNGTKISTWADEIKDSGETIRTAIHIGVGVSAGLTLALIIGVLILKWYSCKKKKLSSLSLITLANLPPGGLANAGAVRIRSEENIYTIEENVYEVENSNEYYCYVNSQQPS

Tests used:
[1] = target: TIM3 transgenically overexpressed on primary mouse T cells (human CD2 promotor) (UniProt Q8VIM0); experiment: flow cytometry staining of primary TIM3 Tg T cells with mouse N-domain-Fc (FIG. 9)
[2] = target: TIM3 transgenically overexpressed on primary mouse T cells (human CD2 promotor) (UniProt Q8VIM0); experiment: flow cytometry, staining of primary T cells of TIM3Tg CEACAM1KO mice with CEACAM1-NFc-APC, MFI with CEACAM1KO mice set as 1
[3] = target: TIM3 transgenically overexpressed on primary mouse T cells (human CD2 promotor) (UniProt Q8VIM0); experiment: flow cytometry, staining of primary T cells of TIM3Tg WT mice with CEACAM1-NFc-APC, MFI with CEACAM1KO mice set as 1

binding [1]: binds
binding [2]: binds
binding [3]: binds
B1: mouse CEACAM1 N-domain Fc fusion protein (Fc fusion, UniProt P31809 35-142, looked up, not shown: a dimerising Fc or GST)
chain: EVTIEAVPPQVAEDNNVLLLVHNLPLALGAFAWYKGNTTAIDKEIARFVPNSNMNFTGQAYSGREIIYSNGSLLFQMITMKDMGVYTLDMTDENYRRTQATVRFHVHP
